The record followed here is US20060188903A1, “Implantation serine proteinases” (priority 2001, published 2006).

The target in the test is Implantation Serine Proteinase 2 (ISP2) (mouse). The experiment in a line: Western blot of uterine material; no details given.

No constants are given. Whether binding was seen depends on the method and setting. Binding can be weak; no strength is given.

B1: Implantation Serine Proteinase 1 (ISP1) (enzyme)
chain: KPVGIVGGQRTPPGKWPWQVSLRMYSYEVNSWVHICGGSIIHPQWILTAAHCIQSQDADPAVYRVQVGEVYLYKEQELLTISRIIIHPDYNDVSKRFDLALMQLTALLVTSTNVSPVSLPKDSSTFDSTDQCWLVGWGNLLQRVPLQPPYQLHEVKIPIQDNKSCKRAYRKKSSDEHKAVAIFDDMLCAGTSGRGPCFGVSGGPLVCWKSNKWIQVGVVSKGIDCSNNQPSIFSRVQSSLAWIHQHIQ
In the case of B1, the binding result is “binds”.
